For the assay, the target named is T1, FLAG-Sting (UniProt Q3TBT3).
T1 sequence: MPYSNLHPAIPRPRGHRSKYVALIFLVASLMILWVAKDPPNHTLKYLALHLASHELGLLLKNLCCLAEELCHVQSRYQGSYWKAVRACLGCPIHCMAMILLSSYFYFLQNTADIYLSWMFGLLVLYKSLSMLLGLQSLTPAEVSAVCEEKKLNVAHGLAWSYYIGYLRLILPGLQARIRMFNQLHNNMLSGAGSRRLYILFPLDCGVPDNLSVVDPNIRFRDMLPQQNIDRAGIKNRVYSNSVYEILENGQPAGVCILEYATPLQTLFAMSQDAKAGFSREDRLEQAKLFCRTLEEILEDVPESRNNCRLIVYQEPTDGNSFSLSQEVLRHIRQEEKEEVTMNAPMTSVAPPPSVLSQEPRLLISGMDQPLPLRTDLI
The experiment in a line: co-IP; HEK293T cells transfected with FLAG-Sting and HA-Rab GTPases, harvested 24 h later; lysis in 20 mM Tris-HCl pH 7.4, 0.5% Nonidet-P40, 150 mM NaCl; IP with the FLAG antibody on Protein G dynabeads overnight at 4 °C; western blot.

These are yes or no findings as the source states them, for the method shown. Binding seen in cells or lysates may run through a third protein. A result given as binding can be weak or reduced; the word gives no strength. Where a sequence is shown, tags or fusion partners need not be part of it.

In the case of HA-Rab27, the binding result is on record as “binds weakly”.

Source of the values: publication PMC9666523.
